The source of these data is publication PMC4887914.

Chains of the proteins cited; added tags and fusions are not shown. Residues count along the entry.
UniProt P08047, 2-785: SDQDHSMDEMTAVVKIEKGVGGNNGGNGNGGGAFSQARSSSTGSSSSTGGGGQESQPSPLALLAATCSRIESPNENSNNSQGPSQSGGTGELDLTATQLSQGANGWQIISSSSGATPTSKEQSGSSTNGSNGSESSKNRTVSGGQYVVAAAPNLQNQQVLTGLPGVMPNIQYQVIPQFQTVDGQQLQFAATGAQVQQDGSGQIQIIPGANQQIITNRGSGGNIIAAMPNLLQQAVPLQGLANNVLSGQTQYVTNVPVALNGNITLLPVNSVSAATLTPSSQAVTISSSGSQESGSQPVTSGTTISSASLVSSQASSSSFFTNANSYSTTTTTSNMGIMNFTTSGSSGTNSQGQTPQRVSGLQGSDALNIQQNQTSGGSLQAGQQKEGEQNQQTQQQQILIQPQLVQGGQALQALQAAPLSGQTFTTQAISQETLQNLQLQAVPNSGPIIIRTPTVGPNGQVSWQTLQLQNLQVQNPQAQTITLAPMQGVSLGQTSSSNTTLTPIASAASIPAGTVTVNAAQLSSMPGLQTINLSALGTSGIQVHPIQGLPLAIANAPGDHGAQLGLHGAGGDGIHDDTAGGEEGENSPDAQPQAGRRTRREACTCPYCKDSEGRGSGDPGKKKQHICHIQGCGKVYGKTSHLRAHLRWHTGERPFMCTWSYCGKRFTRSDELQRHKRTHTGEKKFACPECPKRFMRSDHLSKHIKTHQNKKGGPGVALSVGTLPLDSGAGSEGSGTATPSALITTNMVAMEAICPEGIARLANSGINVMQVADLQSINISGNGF

The target in the data set is Sp1 (UniProt P08047). Kind of data set: EMSA. The conditions noted are these: recombinant Sp1; LightShift Chemiluminescent EMSA kit (Pierce), 25 °C, 20 min, 6% PAGE; 100-fold unlabeled competitor; salt and pH not stated; commercial protein; label: 3' biotin.

For at least one entry, the source does not settle the construct or the ends of the probe. A negative result means that nothing was seen under these conditions. At least one verdict was read from the data and is not stated in words by the source.

Consider “CCTTCAAGTGACTAGGAAGTGGAAACCT (double strand) [MMP13 rs2252070A probe]”, for which the binding result was “no binding”.
